{"sequences": {"note": "By UniProt entry, the sequences of proteins in these tests, tags left out.", "UniProt P0CX29": "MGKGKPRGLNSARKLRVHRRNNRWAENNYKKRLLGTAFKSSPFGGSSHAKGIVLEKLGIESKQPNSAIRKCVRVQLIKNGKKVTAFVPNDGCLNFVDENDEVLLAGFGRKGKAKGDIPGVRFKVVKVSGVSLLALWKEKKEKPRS", "UniProt Q05022": "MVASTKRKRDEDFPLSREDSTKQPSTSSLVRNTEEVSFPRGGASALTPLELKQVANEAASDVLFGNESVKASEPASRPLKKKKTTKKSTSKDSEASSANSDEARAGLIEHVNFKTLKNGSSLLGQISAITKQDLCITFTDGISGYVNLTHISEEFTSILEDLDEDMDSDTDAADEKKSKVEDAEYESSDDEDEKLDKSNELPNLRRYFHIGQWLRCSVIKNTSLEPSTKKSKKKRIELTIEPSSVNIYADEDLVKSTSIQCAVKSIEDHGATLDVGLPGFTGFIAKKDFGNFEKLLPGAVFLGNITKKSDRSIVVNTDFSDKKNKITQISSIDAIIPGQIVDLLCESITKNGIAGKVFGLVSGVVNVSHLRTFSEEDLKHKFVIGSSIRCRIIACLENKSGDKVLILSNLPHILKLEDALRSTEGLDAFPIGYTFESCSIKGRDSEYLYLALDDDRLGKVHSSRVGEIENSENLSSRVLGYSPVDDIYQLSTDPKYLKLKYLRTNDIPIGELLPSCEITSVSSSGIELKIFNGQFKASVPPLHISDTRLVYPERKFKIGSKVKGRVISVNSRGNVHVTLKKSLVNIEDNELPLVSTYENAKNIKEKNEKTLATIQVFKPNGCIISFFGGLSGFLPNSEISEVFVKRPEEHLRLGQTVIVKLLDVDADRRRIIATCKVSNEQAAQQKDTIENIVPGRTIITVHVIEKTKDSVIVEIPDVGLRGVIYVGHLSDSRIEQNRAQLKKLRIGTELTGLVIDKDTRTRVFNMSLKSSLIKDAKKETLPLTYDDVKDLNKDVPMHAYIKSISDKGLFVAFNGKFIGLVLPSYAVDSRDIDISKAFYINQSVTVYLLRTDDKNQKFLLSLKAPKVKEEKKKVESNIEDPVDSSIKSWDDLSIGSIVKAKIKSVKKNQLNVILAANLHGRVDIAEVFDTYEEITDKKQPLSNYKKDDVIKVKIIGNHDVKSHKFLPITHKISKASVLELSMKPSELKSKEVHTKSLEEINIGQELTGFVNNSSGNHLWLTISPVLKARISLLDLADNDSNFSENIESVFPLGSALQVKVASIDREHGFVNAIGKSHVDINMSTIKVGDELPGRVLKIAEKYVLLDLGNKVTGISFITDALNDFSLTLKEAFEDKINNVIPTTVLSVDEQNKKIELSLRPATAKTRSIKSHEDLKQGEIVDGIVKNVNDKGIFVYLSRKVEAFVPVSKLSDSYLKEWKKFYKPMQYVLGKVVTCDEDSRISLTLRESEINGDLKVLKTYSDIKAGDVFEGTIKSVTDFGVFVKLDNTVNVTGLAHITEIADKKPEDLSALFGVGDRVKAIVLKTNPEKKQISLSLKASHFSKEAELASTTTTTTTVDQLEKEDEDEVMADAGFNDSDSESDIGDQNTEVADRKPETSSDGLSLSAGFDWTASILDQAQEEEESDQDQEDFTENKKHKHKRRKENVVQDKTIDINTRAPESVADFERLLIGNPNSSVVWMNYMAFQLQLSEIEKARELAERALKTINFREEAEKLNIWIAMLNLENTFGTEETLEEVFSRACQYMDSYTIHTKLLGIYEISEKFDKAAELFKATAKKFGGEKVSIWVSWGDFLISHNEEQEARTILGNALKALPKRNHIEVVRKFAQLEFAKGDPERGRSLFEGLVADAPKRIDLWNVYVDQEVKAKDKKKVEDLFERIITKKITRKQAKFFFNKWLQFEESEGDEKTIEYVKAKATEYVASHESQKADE", "UniProt Q12499": "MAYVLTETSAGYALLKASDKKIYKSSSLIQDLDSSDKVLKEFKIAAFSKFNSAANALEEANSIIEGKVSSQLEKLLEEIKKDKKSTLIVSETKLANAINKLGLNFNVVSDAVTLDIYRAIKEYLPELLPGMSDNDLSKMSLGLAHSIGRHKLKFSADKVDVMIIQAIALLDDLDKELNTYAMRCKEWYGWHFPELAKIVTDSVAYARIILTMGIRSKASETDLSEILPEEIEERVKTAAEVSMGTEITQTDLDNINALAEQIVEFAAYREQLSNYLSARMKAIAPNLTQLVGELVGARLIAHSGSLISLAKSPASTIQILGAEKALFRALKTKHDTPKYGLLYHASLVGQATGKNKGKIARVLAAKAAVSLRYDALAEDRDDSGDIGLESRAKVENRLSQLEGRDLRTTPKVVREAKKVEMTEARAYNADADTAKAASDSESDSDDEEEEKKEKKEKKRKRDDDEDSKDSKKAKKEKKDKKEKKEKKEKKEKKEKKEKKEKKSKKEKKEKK", "UniProt P15646": "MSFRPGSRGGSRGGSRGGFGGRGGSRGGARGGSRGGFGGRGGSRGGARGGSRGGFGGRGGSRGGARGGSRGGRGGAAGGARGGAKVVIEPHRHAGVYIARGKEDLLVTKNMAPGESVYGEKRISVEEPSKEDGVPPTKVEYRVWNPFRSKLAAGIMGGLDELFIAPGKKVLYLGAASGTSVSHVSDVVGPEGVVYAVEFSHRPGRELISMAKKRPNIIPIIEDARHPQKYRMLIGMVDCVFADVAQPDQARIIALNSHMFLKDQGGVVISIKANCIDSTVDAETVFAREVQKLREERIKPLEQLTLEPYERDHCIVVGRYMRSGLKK", "UniProt Q12460": "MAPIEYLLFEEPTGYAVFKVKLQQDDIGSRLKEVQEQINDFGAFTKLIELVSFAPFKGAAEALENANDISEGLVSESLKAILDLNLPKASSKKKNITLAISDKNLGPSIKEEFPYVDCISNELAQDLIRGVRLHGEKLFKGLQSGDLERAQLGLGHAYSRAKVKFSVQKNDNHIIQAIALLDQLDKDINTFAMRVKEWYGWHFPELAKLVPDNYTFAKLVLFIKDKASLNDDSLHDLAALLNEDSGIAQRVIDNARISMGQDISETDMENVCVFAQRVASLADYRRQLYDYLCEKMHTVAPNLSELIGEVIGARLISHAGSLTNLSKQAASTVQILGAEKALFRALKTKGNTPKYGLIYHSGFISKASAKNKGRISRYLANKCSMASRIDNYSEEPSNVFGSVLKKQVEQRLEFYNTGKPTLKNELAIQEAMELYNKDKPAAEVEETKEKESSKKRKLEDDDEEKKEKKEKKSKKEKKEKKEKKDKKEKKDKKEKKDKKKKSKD"}, "source": "paper PMC4340053", "about": "“The DEAH-box Helicase Dhr1 Dissociates U3 from the Pre-rRNA to Promote Formation of the Central Pseudoknot” (PLoS Biology, 2015)", "molecules": {"B1": {"name": "Mpp10 (protein, UniProt P47083 1-593)", "chain": "MSELFGVLKSNAGRIILKDPSATSKDVKAYIDSVINTCKNGSITKKAELDEITVDGLDANQVWWQVKLVLDSIDGDLIQGIQELKDVVTPSHNLSDGSTLNSSSGEESELEEAESVFKEKQMLSADVSEIEEQSNDSLSENDEEPSMDDEKTSAEAAREEFAEEKRISSGQDERHSSPDPYGINDKFFDLEKFNRDTLAAEDSNEASEGSEDEDIDYFQDMPSDDEEEEAIYYEDFFDKPTKEPVKKHSDVKDPKEDEELDEEEHDSAMDKVKLDLFADEEDEPNAEGVGEASDKNLSSFEKQQIEIRKQIEQLENEAVAEKKWSLKGEVKAKDRPEDALLTEELEFDRTAKPVPVITSEVTESLEDMIRRRIQDSNFDDLQRRTLLDITRKSQRPQFELSDVKSSKSLAEIYEDDYTRAEDESALSEELQKAHSEISELYANLVYKLDVLSSVHFVPKPASTSLEIRVETPTISMEDAQPLYMSNASSLAPQEIYNVGKAEKDGEIRLKNGVAMSKEELTREDKNRLRRALKRKRSKANLPNVNKRSKRNDVVDTLSKAKNITVINQKGEKKDVSGKTKKSRSGPDSTNIKL"}, "B2": {"name": "GTPase Bms1 (protein, UniProt Q08965 1-1183)", "chain": "MEQSNKQHRKAKEKNTAKKKLHTQGHNAKAFAVAAPGKMARTMQRSSDVNERKLHVPMVDRTPEDDPPPFIVAVVGPPGTGKTTLIRSLVRRMTKSTLNDIQGPITVVSGKHRRLTFLECPADDLNAMIDIAKIADLVLLLIDGNFGFEMETMEFLNIAQHHGMPRVLGVATHLDLFKSQSTLRASKKRLKHRFWTEVYQGAKLFYLSGVINGRYPDREILNLSRFISVMKFRPLKWRNEHPYMLADRFTDLTHPELIETQGLQIDRKVAIYGYLHGTPLPSAPGTRVHIAGVGDFSVAQIEKLPDPCPTPFYQQKLDDFEREKMKEEAKANGEITTASTTRRRKRLDDKDKLIYAPMSDVGGVLMDKDAVYIDIGKKNEEPSFVPGQERGEGEKLMTGLQSVEQSIAEKFDGVGLQLFSNGTELHEVADHEGMDVESGEESIEDDEGKSKGRTSLRKPRIYGKPVQEEDADIDNLPSDEEPYTNDDDVQDSEPRMVEIDFNNTGEQGAEKLALETDSEFEESEDEFSWERTAANKLKKTESKKRTWNIGKLIYMDNISPEECIRRWRGEDDDSKDESDIEEDVDDDFFRKKDGTVTKEGNKDHAVDLEKFVPYFDTFEKLAKKWKSVDAIKERFLGAGILGNDNKTKSDSNEGGEELYGDFEDLEDGNPSEQAEDNSDKESEDEDENEDTNGDDDNSFTNFDAEEKKDLTMEQEREMNAAKKEKLRAQFEIEEGENFKEDDENNEYDTWYELQKAKISKQLEINNIEYQEMTPEQRQRIEGFKAGSYVRIVFEKVPMEFVKNFNPKFPIVMGGLLPTEIKFGIVKARLRRHRWHKKILKTNDPLVLSLGWRRFQTLPIYTTTDSRTRTRMLKYTPEHTYCNAAFYGPLCSPNTPFCGVQIVANSDTGNGFRIAATGIVEEIDVNIEIVKKLKLVGFPYKIFKNTAFIKDMFSSAMEVARFEGAQIKTVSGIRGEIKRALSKPEGHYRAAFEDKILMSDIVILRSWYPVRVKKFYNPVTSLLLKEKTEWKGLRLTGQIRAAMNLETPSNPDSAYHKIERVERHFNGLKVPKAVQKELPFKSQIHQMKPQKKKTYMAKRAVVLGGDEKKARSFIQKVLTISKAKDSKRKEQKASQRKERLKKLAKMEEEKSQRDKEKKKEYFAQNGKRTTMGGDDESRPRKMRR"}, "B3": {"name": "putative A2 endonuclease Rcl1 (protein, UniProt Q08096 1-367)", "chain": "MSSSAPKYTTFQGSQNFRLRIVLATLSGKPIKIEKIRSGDLNPGLKDYEVSFLRLIESVTNGSVIEISYTGTTVIYRPGIIVGGASTHICPSSKPVGYFVEPMLYLAPFSKKKFSILFKGITASHNDAGIEAIKWGLMPVMEKFGVRECALHTLKRGSPPLGGGEVHLVVDSLIAQPITMHEIDRPIISSITGVAYSTRVSPSLVNRMIDGAKKVLKNLQCEVNITADVWRGENSGKSPGWGITLVAQSKQKGWSYFAEDIGDAGSIPEELGEKVACQLLEEISKSAAVGRNQLPLAIVYMVIGKEDIGRLRINKEQIDERFIILLRDIKKIFNTEVFLKPVDEADNEDMIATIKGIGFTNTSKKIA"}, "B4": {"name": "Imp3 (protein, UniProt P32899 1-183)", "chain": "MVRKLKHHEQKLLKKVDFLEWKQDQGHRDTQVMRTYHIQNREDYHKYNRICGDIRRLANKLSLLPPTDPFRRKHEQLLLDKLYAMGVLTTKSKISDLENKVTVSAICRRRLPVIMHRLKMAETIQDAVKFIEQGHVRVGPNLINDPAYLVTRNMEDYVTWVDNSKIKKTLLRYRNQIDDFDFS"}, "B5": {"name": "Imp4 (protein, UniProt P53941 1-290)", "chain": "MLRRQARERREYLYRKAQELQDSQLQQKRQIIKQALAQGKPLPKELAEDESLQKDFRYDQSLKESEEADDLQVDDEYAATSGIMDPRIIVTTSRDPSTRLSQFAKEIKLLFPNAVRLNRGNYVMPNLVDACKKSGTTDLVVLHEHRGVPTSLTISHFPHGPTAQFSLHNVVMRHDIINAGNQSEVNPHLIFDNFTTALGKRVVCILKHLFNAGPKKDSERVITFANRGDFISVRQHVYVRTREGVEIAEVGPRFEMRLFELRLGTLENKDADVEWQLRRFIRTANKKDYL"}, "B6": {"name": "Rps2 (uS5) (protein, UniProt P25443 1-254)", "chain": "MSAPEAQQQKRGGFGGRNRGRPNRRGPRNTEEKGWVPVTKLGRLVKAGKITTIEEIFLHSLPVKEFQIIDTLLPGLQDEVMNIKPVQKQTRAGQRTRFKAVVVVGDSNGHVGLGIKTAKEVAGAIRAGIIIAKLSVIPIRRGYWGTNLGQPHSLATKTTGKCGSVTVRLIPAPRGSGIVASPAVKKLLQLAGVEDVYTQSNGKTRTLENTLKAAFVAIGNTYGFLTPNLWAEQPLPVSPLDIYSDEASAQKKRF"}, "B7": {"name": "Rps3 (uS3) (protein, UniProt P05750 1-240)", "chain": "MVALISKKRKLVADGVFYAELNEFFTRELAEEGYSGVEVRVTPTKTEVIIRATRTQDVLGENGRRINELTLLVQKRFKYAPGTIVLYAERVQDRGLSAVAQAESMKFKLLNGLAIRRAAYGVVRYVMESGAKGCEVVVSGKLRAARAKAMKFADGFLIHSGQPVNDFIDTATRHVLMRQGVLGIKVKIMRDPAKSRTGPKALPDAVTIIEPKEEEPILAPSVKDYRPAEETEAQAEPVEA"}, "B8": {"name": "Ltv1 (protein, UniProt P34078 1-463)", "chain": "MSKKFSSKNSQRYVVVHRPHDDPSFYDTDASAHVLVPVSNPNKTSPEADLRKKDVSSTKPKGRRAHVGEAALYGINFDDSEYDYTQHLKPIGLDPENSIFIASKGNEQKVEKKNIEDLFIEPKYRRDEIEKDDALPVFQRGMAKPEYLLHQQDTTDEIRGFKPDMNPALREVLEALEDEAYVVNDDVVVEDISKKTQLQGDNYGEEEKEDDIFAQLLGSGEAKDEDEFEDEFDEWDIDNVENFEDENYVKEMAQFDNIENLEDLENIDYQADVRRFQKDNSILEKHNSDDEFSNAGLDSVNPSEEEDVLGELPSIQDKSKTGKKKRKSRQKKGAMSDVSGFSMSSSAIARTETMTVLDDQYDQIINGYENYEEELEEDEEQNYQPFDMSAERSDFESMLDDFLDNYELESGGRKLAKKDKEIERLKEAADEVSKGKLSQRRNRERQEKKKLEKVTNTLSSLKF"}}, "biological_target": "T1, Dhr1_(K420A)-TEV-13myc (S. cerevisiae) (UniProt Q04217)", "T1 sequence": "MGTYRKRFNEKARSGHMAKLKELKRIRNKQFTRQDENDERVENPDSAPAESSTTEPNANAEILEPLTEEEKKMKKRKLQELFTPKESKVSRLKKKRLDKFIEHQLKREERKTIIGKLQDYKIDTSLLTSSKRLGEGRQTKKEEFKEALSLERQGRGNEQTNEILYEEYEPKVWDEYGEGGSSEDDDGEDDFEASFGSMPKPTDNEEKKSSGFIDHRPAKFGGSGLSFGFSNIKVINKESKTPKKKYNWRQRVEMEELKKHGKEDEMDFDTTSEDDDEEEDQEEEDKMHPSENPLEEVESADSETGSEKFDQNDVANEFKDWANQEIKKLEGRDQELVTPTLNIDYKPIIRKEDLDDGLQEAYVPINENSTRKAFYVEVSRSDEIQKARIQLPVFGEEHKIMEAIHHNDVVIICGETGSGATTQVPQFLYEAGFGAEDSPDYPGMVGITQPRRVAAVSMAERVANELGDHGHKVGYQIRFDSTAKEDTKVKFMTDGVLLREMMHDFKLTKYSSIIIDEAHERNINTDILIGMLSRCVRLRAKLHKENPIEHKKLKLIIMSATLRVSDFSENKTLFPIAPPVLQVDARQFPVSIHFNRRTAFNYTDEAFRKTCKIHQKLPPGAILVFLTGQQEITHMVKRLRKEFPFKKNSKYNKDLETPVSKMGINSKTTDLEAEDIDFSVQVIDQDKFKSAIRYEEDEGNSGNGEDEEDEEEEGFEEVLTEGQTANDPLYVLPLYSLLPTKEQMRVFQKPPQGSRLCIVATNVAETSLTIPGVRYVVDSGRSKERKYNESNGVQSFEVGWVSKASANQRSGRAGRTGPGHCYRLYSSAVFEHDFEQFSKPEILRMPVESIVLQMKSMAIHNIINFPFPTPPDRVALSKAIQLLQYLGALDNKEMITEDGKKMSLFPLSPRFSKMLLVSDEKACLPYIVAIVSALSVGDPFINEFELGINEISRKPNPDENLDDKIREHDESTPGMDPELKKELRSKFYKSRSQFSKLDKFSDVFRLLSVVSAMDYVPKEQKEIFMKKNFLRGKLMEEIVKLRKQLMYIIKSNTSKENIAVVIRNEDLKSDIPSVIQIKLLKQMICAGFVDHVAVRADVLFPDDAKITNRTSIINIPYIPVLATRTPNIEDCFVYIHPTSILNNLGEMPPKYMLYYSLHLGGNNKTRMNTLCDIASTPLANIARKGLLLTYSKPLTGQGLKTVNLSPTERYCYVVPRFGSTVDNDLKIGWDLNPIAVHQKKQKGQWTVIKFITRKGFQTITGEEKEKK", "test": "affinity purification with mass spectrometry; Dhr1_(K420A)-TEV-13myc particle immunoprecipitated from yeast extract with anti-myc antibody on Protein-G magnetic beads (IP buffer 100 mM NaCl, 50 mM Tris-HCl pH 7.5, 1.5 mM MgCl2, 0.15% NP40), released with TEV at 16°C, pelleted through a 15% sucrose cushion, in-gel trypsin digestion, LTQ-Orbitrap; untagged Dhr1_(K420A) as mock", "note": "These are yes or no findings as the source states them, for the method shown. Binding seen in cells or lysates may run through a third protein. A yes stands for co-enrichment or nearness to the bait. Other partners may have been found. No binding means not detected with the bait. Sequences can lack the tags named with a protein.", "data": [{"molecule": "Rps23 (uS12) (from UniProt P0CX29 1-145)", "values": [{"measurement": "binding", "value": "no binding"}]}, {"molecule": "Rrp5 (from UniProt Q05022 1-1729)", "values": [{"measurement": "binding", "value": "binds"}]}, {"molecule": "Nop58 (from UniProt Q12499 1-511)", "values": [{"measurement": "binding", "value": "binds"}]}, {"molecule": "Nop1 (from UniProt P15646 1-327)", "values": [{"measurement": "binding", "value": "binds"}]}, {"molecule": "Nop56 (from UniProt Q12460 1-504)", "values": [{"measurement": "binding", "value": "binds"}]}, {"molecule": "B1", "values": [{"measurement": "binding", "value": "binds"}]}, {"molecule": "B2", "values": [{"measurement": "binding", "value": "binds"}]}, {"molecule": "B3", "values": [{"measurement": "binding", "value": "binds"}]}, {"molecule": "B4", "values": [{"measurement": "binding", "value": "binds"}]}, {"molecule": "B5", "values": [{"measurement": "binding", "value": "binds"}]}, {"molecule": "B6", "values": [{"measurement": "binding", "value": "no binding"}]}, {"molecule": "B7", "values": [{"measurement": "binding", "value": "no binding"}]}, {"molecule": "B8", "values": [{"measurement": "binding", "value": "no binding"}]}]}
